PubChem BioAssay AID1508597 | Cure First, 2020
Aim: 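Survival screen with siRNA in ovarian cancer cells derived from patients, with or without rucaparib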 (primary screen). Cell system: human ovarian carcinoma lines grown from tumours: OCI-P5x (papillary serous) and OCI-C5x (clear cell). Knock-down reagent: siRNA pool against human genes, 1.25 pmol siRNA per well. Time to read-out: 72 h or 96 h, depending on the cell culture. Conditions: rucaparib 20 µM (about IC30) or vehicle, present until read-out. Detection: 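Luminescent ATP-based viability assay read 72 or 96 h after transfection, depending on culture, given as normalised percent viability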. Direction: viability, normalised: higher = more viable cells remaining. Active means: 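a well counts as a hit if its normalised viability is under 80 percent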. Calls: active = viability under 80%; inactive = viability 80% or more.
Here is a random part of about 2,100 deposited reagents. 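Calls flag viability under 80% in either arm, not effects specific to rucaparib; the reference for percent is not stated.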 Entries without a mark were called inactive. A reagent listed more than once was tested more than once; the source does not tell the runs apart. No sequences are given here. The record does not give: the 100% reference.

With UBE2N, rucaparib or vehicle Rucaparib, cell line OCI-C5x (clear cell), technical replicate 1, what was measured?
viability, normalised (%): 95

With UBE2N, rucaparib or vehicle Rucaparib, cell line OCI-C5x (clear cell), technical replicate 1, how do the results read?
viability, normalised (%): 61 (active)

How did the screen score UBE2N, rucaparib or vehicle Rucaparib, cell line OCI-C5x (clear cell), technical replicate 2?
viability, normalised (%): 81.4

How did the screen score UBE2N, rucaparib or vehicle Rucaparib, cell line OCI-C5x (clear cell), technical replicate 2?
viability, normalised (%): 53.8 (active)

With UBE2N, rucaparib or vehicle Rucaparib, cell line OCI-C5x (clear cell), technical replicate 3, how do the results read?
viability, normalised (%): 49.7 (active)

With UBE2N, rucaparib or vehicle Rucaparib, cell line OCI-C5x (clear cell), technical replicate 3, what was measured?
viability, normalised (%): 54.6 (active)

What is on record for UBE2N, rucaparib or vehicle Rucaparib, cell line OCI-P5x (serous), technical replicate 1?
viability, normalised (%): 73.9 (active)

For UBE2N, rucaparib or vehicle Rucaparib, cell line OCI-P5x (serous), technical replicate 1, what does the deposit list?
viability, normalised (%): 51 (active)

For UBE2N, rucaparib or vehicle Rucaparib, cell line OCI-P5x (serous), technical replicate 2, how do the results read?
viability, normalised (%): 53 (active)

What is on record for UBE2N, rucaparib or vehicle Rucaparib, cell line OCI-P5x (serous), technical replicate 2?
viability, normalised (%): 69.8 (active)

What is on record for UBE2N, rucaparib or vehicle Rucaparib, cell line OCI-P5x (serous), technical replicate 3?
viability, normalised (%): 87.7

What is on record for UBE2N, rucaparib or vehicle Rucaparib, cell line OCI-P5x (serous), technical replicate 3?
viability, normalised (%): 47.2 (active)

With UBE2N, rucaparib or vehicle Vehicle, cell line OCI-C5x (clear cell), technical replicate 1, what does the deposit list?
viability, normalised (%): 44.5 (active)

For UBE2N, rucaparib or vehicle Vehicle, cell line OCI-C5x (clear cell), technical replicate 1, how do the results read?
viability, normalised (%): 40.1 (active)

How did the screen score UBE2N, rucaparib or vehicle Vehicle, cell line OCI-C5x (clear cell), technical replicate 2?
viability, normalised (%): 72.7 (active)

Which result is listed for UBE2N, rucaparib or vehicle Vehicle, cell line OCI-C5x (clear cell), technical replicate 2?
viability, normalised (%): 50.6 (active)

What is on record for UBE2N, rucaparib or vehicle Vehicle, cell line OCI-C5x (clear cell), technical replicate 3?
viability, normalised (%): 56.3 (active)

How did the screen score UBE2N, rucaparib or vehicle Vehicle, cell line OCI-C5x (clear cell), technical replicate 3?
viability, normalised (%): 42.6 (active)

How did the screen score UBE2N, rucaparib or vehicle Vehicle, cell line OCI-P5x (serous), technical replicate 1?
viability, normalised (%): 47.4 (active)

Which result is listed for UBE2N, rucaparib or vehicle Vehicle, cell line OCI-P5x (serous), technical replicate 1?
viability, normalised (%): 102

What did the screen give for UBE2N, rucaparib or vehicle Vehicle, cell line OCI-P5x (serous), technical replicate 2?
viability, normalised (%): 45.6 (active)

For UBE2N, rucaparib or vehicle Vehicle, cell line OCI-P5x (serous), technical replicate 2, what was measured?
viability, normalised (%): 103

What is on record for UBE2N, rucaparib or vehicle Vehicle, cell line OCI-P5x (serous), technical replicate 3?
viability, normalised (%): 99.4

For UBE2N, rucaparib or vehicle Vehicle, cell line OCI-P5x (serous), technical replicate 3, how do the results read?
viability, normalised (%): 42.8 (active)
